Residues, ends and D or L forms follow the SMILES beside them.
Test system: bEVs from K. pneumoniae
Assay: SPR interaction with immobilized bEVs

SMILES: NCCCC[C@@H]1NC(=O)[C@H](Cc2c[nH]c3ccccc23)NC(=O)[C@H](CCCCN)NC(=O)[C@H](Cc2c[nH]c3ccccc23)NC(=O)[C@H](CCCCN)NC(=O)[C@H](Cc2c[nH]c3ccccc23)NC1=O [c-WKWKWK] (cyclo(WKWKWK))
- increase in KD (K. pneumoniae bEVs compared with bEVs from A. baumannii and E. coli ΔtolA): twofold increase

SMILES: NCCCC[C@@H]1NC(=O)[C@H](CCCCN)NC(=O)[C@H](Cc2c[nH]c3ccccc23)NC(=O)[C@H](Cc2c[nH]c3ccccc23)NC(=O)[C@H](Cc2c[nH]c3ccccc23)NC(=O)[C@H](CCCCN)NC1=O [c-WWWKKK] (cyclo(WWWKKK))
- lower KD compared to the KD for other clinical strains (K. pneumoniae bEVs versus bEVs of the other clinical strains): approximately 5 fold
